In PubChem BioAssay AID1794845 (National Center for Advancing Translational Sciences (NCATS), 2023):
Hit rate of the full screen: of about 6,900 compounds, fewer than 10 were called active. Calls come from the whole dose curve; as a rule, active = well fitted curve in the direction sought with a large enough effect; inconclusive = small, poorly fitted or top-dose-only effect, or another doubt; inactive = no such curve, though single readings can be large or run the other way. The list shows a part of the results.

By UniProt entry, the sequences of proteins in these tests, tags left out. Where a name states a change or a piece, a line headed by the entry shows the natural chain unless it says otherwise.
UniProt C7C422: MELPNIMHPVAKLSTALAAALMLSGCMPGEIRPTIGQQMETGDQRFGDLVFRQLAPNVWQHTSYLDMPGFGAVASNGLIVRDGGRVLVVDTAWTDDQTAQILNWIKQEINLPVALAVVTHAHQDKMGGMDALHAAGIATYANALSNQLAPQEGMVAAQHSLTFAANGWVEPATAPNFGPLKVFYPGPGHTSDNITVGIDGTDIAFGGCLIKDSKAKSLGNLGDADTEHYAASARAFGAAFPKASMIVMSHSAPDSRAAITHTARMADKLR

molecular target: Metallo-beta-lactamase type 2 (Klebsiella pneumoniae) (UniProt C7C422); assay: qHTS to identify inhibitors of the New Delhi Metallo-beta-lactamase (NDM): primary screen against the NCATS Gemini Collection; settings: NDM-1 enzyme, meropenem hydrolysis, absorbance 300 nm; at 38.4 µM (top of the series) unless noted; note: % of control where 0% means no effect
Outline: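 Meropenem hydrolysis (50 uM final) by 2 nM NDM-1 read as 300 nm absorbance after 30 min, following >30 min compound–enzyme preincubation in HEPES pH 7.0 with 1 uM ZnSO4 and 0.01% Tween20.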

Activity % (negative = inhibition), inactive:
Cc1c(-c2ccccc2F)[nH]c2ccc(CNC(=O)C3C=CCN3)cc12 (centres undefined) 3.48%, c1cnc(-c2noc(-c3nc(-c4ccc5c(c4)OCO5)no3)n2)cn1 1.24%, Cc1ccc(-c2noc([C@@H]3Cc4nc[nH]c4CN3C(=O)NC3CCCCC3)n2)cc1 19.1% [at 57.5 µM], CCN1C(=O)Cc2cc(C(=O)Nc3ccc(F)cc3)ccc21 33.6%, c1cncc(CN2CC[C@H](c3nnc(Cc4c[nH]c5ccccc45)o3)C2)c1 4.49% [at 57.5 µM], CCCOCC(=O)N1CCc2onc(-c3ccc(C(F)(F)F)cc3)c2C1 64.3%, CN(Cc1cccn1C)C(=O)C1CC1 -2.19% [at 77.1 µM], CN1CC(=O)N(c2cccnc2)Cc2c1ncnc2N1CCN(c2ncccn2)CC1 10.8%, CCOc1c(CN(C)C(=O)Cn2cccc(OC)c2=O)cccc1OC 1.77%, CN1C[C@H](NC2CCC2)CCC[C@@H](C(=O)NC2CCOCC2)CC1=O -6.09% [at 57.5 µM], Cc1onc(C(=O)NCc2ccc3[nH]c(-c4ccc(F)cc4)c(C)c3c2)c1CO 9.36%, Cn1cc(CN2CCCC(COc3ccccc3C(=O)N3CCCCC3)C2)c2ccccc21 (centres undefined) 1.2%, CCc1ccccc1NC(=O)N1C[C@@H](F)C[C@H]1C(=O)N1CCc2ccccc2C1 0.167%, Cc1oc2c(c1C(=O)N1CCOCC1)CN(Cc1cccnc1)CC2 -5.86%, O=C(NC1CCCCC1)N[C@H]1C[C@H]2C(=O)N3CCC[C@@H]3C(=O)N2C1 1.76% [at 57.5 µM], CC(C)NC(=O)N(C1CCOCC1)C1CNC1 7.72%, Cn1c(CN2CCOCC2)nnc1C1CCCN(C(=O)c2cc[nH]c2)C1 (centres undefined) 13.4%, COc1cccc2sc(NC(=O)c3ccc4c(c3)OCCN(C3CCC3)C4)nc12 14.2% [at 57.5 µM], Cc1ccc(F)c(OC2(C(=O)O)CCN(Cc3cccc(C)n3)CC2)c1 2.82%, CN1CCN(Cc2ccc(-c3cnc4c(OCc5ccccc5)nccn34)cc2)CC1 0.216% [at 57.5 µM], COC[C@H]1NC(=O)CC[C@H]1C(=O)NCCCc1ccccc1 14%, CCN1CC2(CCN(Cc3cc4c(cc3OC)OCCCO4)CC2)OC1=O 1.78%, CN1CCCC(CN(C)C(=O)c2cc(-c3cnn(CCO)c3)nc3ccccc23)C1 (centres undefined) 0.511%, Cc1ccc(CN2CCC3OCCN(Cc4ccccc4)C(=O)C3C2)o1 (centres undefined) 2.35% [at 57.5 µM], O=C(CC[C@H]1NC(=O)c2ccccc2NC1=O)Nc1nc(-c2cccnc2)cs1 60%, COCCC(=O)N1CC(c2nc(CCOc3cccc(C)c3)no2)C1 -5.55%, O=C(NCc1ccc2c(c1)OCO2)C1NCCc2[nH]cnc21 (centres undefined) 13%, O=C(c1cccs1)N1CCN2CCS(=O)(=O)N(C3CC3)C(=O)C2C1 (centres undefined) 5.15%, Cc1noc(-c2ccncc2)c1C(=O)NCCCCc1ccccc1 0.418%, COc1ccc(C(=O)N2CCC(O)(CO)CC2)c(OC)c1OC 47.8%, CCOc1cccc(CN(C)C(=O)CN2CC3(CCN(C)CC3)CC2=O)c1 -1.71%, CN(Cc1cc(C2CC2)n[nH]1)c1cc(C2CC(N)C2)nc(N)n1 (centres undefined) 14.8%, CC(C)(C)C(=O)N1CC[C@@H](CC(=O)O)[C@@H](CCN2CCC[C@H]2C(N)=O)C1 11.5% [at 57.5 µM], Oc1ccc(NCCN2CCCC2)cc1 57.2% [at 77.1 µM], COCCNC(=O)C1CC(c2ccccc2)CN(C(=O)NCc2ccccc2)C1 (centres undefined) -6.59%, O=C(NCc1ccc(Cl)cc1)c1ccc2cc[nH]c2n1 25.8% [at 57.5 µM], O=C(O)C1CN(C(=O)c2ccco2)CCN(C2CCOCC2)C1 (centres undefined) 2.43%, COc1ccc(-c2nnc3n2CCN([S+](=O)([O-])c2c(C)noc2C)C3)cc1 38.4%, COc1ccc(C2=NOC3(CCN([S+](=O)([O-])c4cccc(C(F)(F)F)c4)C3)C2)cc1 (centres undefined) 3.67%, C[C@@]1(O)CCN(Cc2ccc(Br)o2)C[C@H]1N1CCCC1 10.4%, COc1ccc2c(c1)C(COCc1ccc(C(=O)O)cc1)=CC(C)(C)CO2 -1.52%, CC(C)Oc1ccc2c(NC(=O)CN3CCCC3=O)nn(Cc3ccccc3)c2c1 23.4%, COc1ccc(CN2CC[C@H](c3nc(C)no3)[C@H](NC(=O)C3CC3)C2)cc1 -9.65%, O=C1COc2ccc(Nc3ccc(C(F)(F)F)cc3)nc2CN1 19.7% [at 57.5 µM], NS(=O)(=O)c1ccc(F)c(C(=O)NCc2noc(-c3ccco3)n2)c1 13.8%, O=C1CN(Cc2ccc(Cl)cc2)CCN1c1ccc(Cl)nn1 0.941% [at 57.5 µM], Cc1ccc(N2C(=S)N[C@H]3[C@@H](O)[C@H](O)C[C@@H](C(=O)N4CCCCC4)[C@H]32)cc1 59.6% [at 57.5 µM], COc1cc2c(cc1CN1CCCC(O)(CN(C)C)C1)OCCCO2 (centres undefined) 21.9%, CSCC[C@@H]1NC(=O)c2cc(NC(=O)c3ccc(-n4cnnn4)cc3)ccc2NC1=O 10.2%, Cc1nc(C(=O)N2CC[C@H](NC(=O)c3cnccn3)C[C@H]2C(=O)N[C@@H](Cc2cccs2)C(N)=O)cs1 0.0804%, O=C(N[C@@H]1CN(C(=O)c2[nH]nc3c2CCc2ccccc2-3)CC[C@@H]1CO)c1ccccc1 3.28%, O=C(NCCCn1ccnn1)c1cccc(S(=O)(=O)N2CCOCC2)c1 12.3%, COC(=O)N1CCC2(CC1)C(=O)NN=C2c1ccncc1 3.59% [at 57.5 µM], COc1ccc(-c2cc(C(=O)NCc3c(C)cc(C)[nH]c3=O)c3c(c2)N(C)CCO3)cn1 10.6% [at 57.5 µM], CCN(CC)c1cc(CCC(=O)NCCc2ccccn2)ccn1 8.43%, COCCN1CCCC2(CCN(c3ccc4ccccc4n3)C2)C1=O (centres undefined) 8.55%, O=C(CCc1ccc2c(c1)CNCCO2)NCC1CC1 5.25%, COc1ccccc1-n1nc(Cc2ccccc2)n(CC(=O)NC(C)C2CC2)c1=O (centres undefined) -0.0357%, CC(C)Oc1ccc(C2(C(=O)N3C[C@@H](C)[C@](O)(C4CC4)C3)CCCC2)cc1 8.52%, O=C(C1CC(=O)N(C2CC2)C1)N1CCC(Oc2cccnc2)CC1 (centres undefined) 0.493%, COc1ccc(CC(=O)NC2CCN(c3nnc4cccc(C)n34)CC2)cc1 0.816%, CCOc1ccc(C2CC(=O)Nc3c2c(C)nn3CC(=O)O)c(OCC)c1C (centres undefined) 0.112%, CC(C)NC(=O)C[C@@H]1O[C@H](CNCc2ccc(F)cc2)[C@@H](O)[C@H]1O 3.44% [at 57.5 µM], NC(=O)C1(c2nc(C3CCOC3)nn2-c2cccc3cccnc23)CC1 (centres undefined) 1.04%, CC(C)[C@@H]1CN(C(=O)c2scc3c2CCCC3)C[C@H]1NS(C)(=O)=O 0.0991%, COCCC(=O)N1CCC2(CCC2NC(=O)COC)CC1 (centres undefined) -5.44%, CNC(=O)[C@@H]1CN(C(=O)c2cc(C)n(CCOC)c2C)C[C@H]1COC 22.4%, CN1CC(=O)N(c2ccccc2F)Cc2c1ncnc2N1CCN(c2ncccn2)CC1 1.86%, CC(=O)N1CCC(C(=O)NCc2cccnc2N(C)Cc2ccccc2)CC1 15.2%, CC(C)(C)CC(=O)NC[C@H]1O[C@H](Cc2cc(-c3ccc(F)cc3)on2)CC[C@@H]1O 0.544% [at 57.5 µM], O=C(CCc1ccccc1)NCC(=O)N1CCN(c2ccccn2)CC1 13.2%, CN(C)C[C@@H]1CN(S(C)(=O)=O)C[C@H]1NC(=O)c1ccc2[nH]ccc2c1 5.2%, CCn1c(C2CCCN(S(=O)(=O)c3cccc4nonc34)C2)nn(C)c1=O (centres undefined) -0.373%, COc1cccc(CC(=O)N[C@@H]2C[C@H](Cn3cc(-c4cccnc4)nn3)[C@@H](O)[C@H]2O)c1 0.332%, COc1ccc(CN2C[C@@H](CO)[C@H](c3ccccn3)C2)cc1C 11.6%, COc1ccc(CCN2CCCC(CN(C)Cc3cnc[nH]3)C2)cc1 (centres undefined) 5.24%, CNC(=O)c1cn2c(n1)CN([S+](C)(=O)[O-])CC2 -0.329% [at 57.5 µM], COCC1CN(C(C)=O)CC12CCN(C(=O)c1nn(C)c3ccccc13)CC2 (centres undefined) 1.31%, COc1cc(-c2onc(C)c2C(=O)NCCCOC(C)C)cc(OC)c1OC -0.808%, CNC(=O)c1cc(C2CC2)nc2onc(C3CCN(C(=O)c4ccc(Cl)nc4)C3)c12 (centres undefined) 14.8%, O=C(c1ccccc1OC(F)(F)F)N1CCC2(CC1)CC(O)CCO2 (centres undefined) 5.28%, CC1(C)CN(C(=O)COc2ccccc2)CC(=O)N(Cc2ccccc2)C1 -1.11%, CCC(C(=O)N(C)Cc1ccc(OC)c2ncccc12)n1cccn1 (centres undefined) -0.226%, CN(CC1Cc2ccccc2O1)C(=O)c1coc(COc2ccc3c(c2)OCO3)n1 (centres undefined) -0.441%
